“Also recorded” adds a separate entry of the source. Some of these results come from one statement about several compounds together.
Test system: C57BL/6J mice
Assay: Cellular and humoral immune response to airway antigen exposure after vaccination with ovalbumin adjuvanted with mycolic acid liposomes
Format: in vivo, mouse
Settings: two intratracheal OVA immunisations in mycolic acid liposomes, then three aerosolised OVA exposures; for cellular response (cellular infiltration, total cell numbers) upon antigen challenge: compared to placebo OVA-immunised group; for serum anti-OVA IgG antibody response: not detected after placebo adjuvanted immunisation

SMILES	cellular response (cellular infiltration, total cell numbers) upon antigen challenge	serum anti-OVA IgG antibody response
CCCCCCCCCCCCCCCCCCCCCC(O)C(CCCCCCCCCCCCCCCCCCCC)C(=O)O (stereo not drawn) [Compound 1, reference compound]	resulted in cellular infiltration in response to antigen-challenge	detected
CCCCCCCCCCCCCCCCCCCCCCCC[C@@H](C(=O)O)[C@H](O)CCCCCCCCCCCCCCCC[C@H]1C[C@@H]1[C@@H](C)CCCCCCCCCCCCCCCCCCC(=O)C(C)CCCCCCCCCCCCCCCCCC (stereo partly drawn) [Compound 4]	resulted in cellular infiltration in response to antigen-challenge	detected
CCCCCCCCCCCCCCCCCCCCCCCC[C@@H](C(=O)O)[C@H](O)CCCCCCCCCCCCCCCCC[C@@H]1CC1CCCCCCCCCCCCCCCC[C@@H](OC)[C@@H](C)CCCCCCCCCCCCCCCCCC (stereo partly drawn) [Compound 6]	resulted in cellular infiltration in response to antigen-challenge; also recorded: strong	detected; also recorded: strong

From patent publication US8728515B2, “Adjuvants for use in vaccination” (Bangor University, priority 2008, dated 2014)
